PubChem BioAssay AID504804 | Drosophila RNAi Screening Center, 2011
In all, the deposit lists about 19,000 reagents; shown is an unselected part of those that have a named target and a result. Of all reagents, 47 (0.25%) are marked active. 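Signals are raw, not normalised; exact z-scores behind calls not deposited; actives needed confirmation, so some wells reaching 2 SD are inactive.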 Unmarked entries are inactive. A plus sign joins genes that one reagent is predicted to hit.

- Purpose: 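Fly genes whose loss lessens doxorubicin-driven cell death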 (primary screen)
- Cell system: Drosophila Kc cells
- Reagents: long dsRNA against Drosophila genes, 0.5 µg dsRNA per well
- Timing: 96 h (48 h knock-down, then 48 h drug)
- Treatment: doxorubicin 5 µg/ml for 48 h, added 48 h after dsRNA
- Measured: 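Luminescent ATP counts per replicate, not normalised, reflecting viable cells after 48 h dsRNA knock-down followed by 48 h of 5 µg/ml doxorubicin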
- Direction: raw ATP luminescence: higher = more viable cells, protection from doxorubicin
- Call rule: 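Active when both duplicate wells lie at least 2 SD above the plate mean and protection is confirmed by rescreening and independent dsRNAs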

| raw ATP luminescence, replicate 1 | raw ATP luminescence, replicate 2 | gene | amplicon |
| --- | --- | --- | --- |
| 18850 | 18090 | Rchy1 (GeneID 33901) | DRSC02542 |
| 2.64e5 | 2.87e5 | gce (GeneID 32457) | DRSC19613 |
| 2.73e5 | 2.82e5 | gce (GeneID 32457) | DRSC19974 |
| 2.10e5 | 2.09e5 | His4:CG33883 + His4:CG33889 + His4:CG33899 + 20 more | DRSC21268 |
| 67270 | 67840 | nonA-l (GeneID 42026) | DRSC17017 |
| 61323 | 67897 | Tim17b1 (GeneID 40635) | DRSC12179 |
| 22973 | 16233 | Ssl1 (GeneID 40509) | DRSC11634 |
| 47460 | 45780 | Zwilch (GeneID 59247) | DRSC15376 |
| 44397 | 34710 | ntc (GeneID 38443) | DRSC08166 |
| 66793 | 57640 | Syx5 (GeneID 34966) | DRSC03432 |
| 34857 | 55177 | CG18302 (GeneID 34452) | DRSC02663 |
| 26640 | 38230 | Gem4b + Gem4c + Glos | DRSC18244 |
| 73733 | 31313 | Art3 (GeneID 41837) | DRSC16065 |
| 24500 | 35250 | PpV (GeneID 31582) | DRSC18700 |
| 3.27e5 | 2.61e5 | Pa1 (GeneID 32079) | DRSC19422 |
| 47870 | 70653 | Dnaaf4 (GeneID 34547) | DRSC02405 |
| 45753 | 31053 | CG7707 (GeneID 39923) | DRSC10903 |
| 57840 | 47200 | CG4511 (GeneID 41305) | DRSC15589 |
| 24600 | 23660 | CG5535 (GeneID 39990) | DRSC10514 |
| 69800 | 60700 | wat (GeneID 43420) | DRSC14854 |
| 34090 | 28640 | trem (GeneID 42392) | DRSC15575 |
| 52440 | 71050 | CG10793 (GeneID 31308) | DRSC17760 |
| 79010 | 53907 | rdo (GeneID 35077) | DRSC02452 |
| 83193 | 63477 | dpr1 (GeneID 2768858) | DRSC05906 |
| 55307 | 82887 | Sardh (GeneID 37026) | DRSC06981 |
| 49553 | 54230 | Efhc1.2 (GeneID 37284) | DRSC06027 |
| 58760 | 49580 | CG6959 (GeneID 41434) | DRSC16151 |
| 29960 | 31450 | ND-75 (GeneID 31762) | DRSC18686 |
| 83330 | 95730 | Sec24CD (GeneID 33409) | DRSC00300 |
| 39730 | 34150 | FoxK (GeneID 39252) | DRSC09859 |
| 34887 | 34677 | CG10681 (GeneID 39425) | DRSC09777 |
| 52153 | 19977 | CG1307 (GeneID 40814) | DRSC12492 |
| 73947 | 65993 | Osi16 (GeneID 318801) | DRSC12135 |
| 3.16e5 | 3.21e5 | Remo (GeneID 2768909) | DRSC19710 |
| 58097 | 37173 | Cht8 (GeneID 37390) | DRSC04546 |
| 2.28e5 | 2.38e5 | Mur11Da (GeneID 318139) | DRSC18960 |
| 49443 | 71170 | CG5676 (GeneID 34368) | DRSC02875 |
| 74140 | 65377 | CG7791 (GeneID 35511) | DRSC04891 |
| 54710 | 41220 | CG18233 (GeneID 40025) | DRSC10308 |
| 42023 | 70080 | Nup75 (GeneID 37078) | DRSC06947 |
| 61220 | 57910 | CG5039 (GeneID 43100) | DRSC15703 |
| 64490 | 67050 | CG17380 (GeneID 42766) | DRSC15230 |
| 62890 | 54430 | Nepl17 (GeneID 43408) | DRSC14880 |
| 1.05e5 | 50950 | CG8372 (GeneID 34121) | DRSC03086 |
| 49850 | 39420 | Pka-C2 (GeneID 43644) | DRSC16790 |
| 50337 | 44103 | Usp20-33 (GeneID 36580) | DRSC07196 |
| 1.23e5 | 86443 | CG31937 (GeneID 326177) | DRSC00514 |
| 63440 | 57283 | hpRNA:CR32205 (GeneID 3772102) | DRSC09890 |
| 37733 | 28830 | Eig71Eg (GeneID 39708) | DRSC11154 |
| 55753 | 77523 | veil (GeneID 36968) | DRSC06892 |
| 27773 | 29687 | Fbw5 (GeneID 33854) | DRSC03146 |
| 49937 | 40763 | CG18178 (GeneID 39138) | DRSC10302 |
| 46410 | 54077 | Alg9 (GeneID 43031) | DRSC14407 |
| 62060 | 60650 | CG13607 (GeneID 42859) | DRSC14610 |
| 32560 | 73863 | Nse4 (GeneID 34434) | DRSC02239 |
| 2.66e5 | 2.57e5 | CG12531 (GeneID 32986) | DRSC19466 |
| 30663 | 30973 | CG7492 (GeneID 38859) | DRSC10855 |
